Data source: PubChem BioAssay AID1224830 (NIAID, 2016)
Aim: 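Host factors that control LPS-induced TNF expression in human macrophages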 (primary screen). Cells: human THP-1 monocytic leukaemia cells, TNF dual-luciferase reporter clone, PMA-differentiated to macrophage-like cells. Knock-down reagent: siRNA pool against human genes, 50 nM. Timing: LPS for 4 h, given about 3 days after siRNA transfection. Challenge: bacterial LPS (TLR4 ligand), 10 ng/ml. Detection: 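Ratio of firefly to renilla light, scaled to the plate median and expressed as a robust z-score per replicate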. Reading the numbers: TNF reporter robust z-score: higher = stronger TNF reporter response to LPS. Call rule: 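a well is active when its z-score exceeds 2.8 or falls below -1.5; control wells carry no call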.
Shown is one part, drawn at random, of about 18,000 reagents. In the full data, about 2,900 (16%) got an active call. 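Calls are made per well; low scores hint the gene aids the LPS response, high scores that it dampens it.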 Entries without a mark were called inactive. Repeated entries: four replicate wells of each siRNA pool.

| gene symbol | TNF reporter robust z-score |
| --- | --- |
| GPN3 | -0.04 |
| GPN3 | 1.15 |
| GPN3 | 1.51 |
| GPN3 | 2.42 |
| FBP2 | 1.52 |
| FBP2 | -0.1 |
| FBP2 | -1.43 |
| FBP2 | 0.47 |
| ANO4 | 1.18 |
| ANO4 | 1.16 |
| ANO4 | -1.12 |
| ANO4 | -0.81 |
| DCLRE1B | 0.46 |
| DCLRE1B | 1.09 |
| DCLRE1B | 0.4 |
| DCLRE1B | 0.16 |
| GALNS | -0.21 |
| GALNS | -0.8 |
| GALNS | -0.55 |
| GALNS | -0.52 |

Quoted from the listing, 7 entries:
| gene symbol | TNF reporter robust z-score |
| --- | --- |
| FBP2 | -0.1 |
| FBP2 | -1.43 |
| FBP2 | 0.47 |
| ANO4 | 1.18 |
| ANO4 | 1.16 |
| ANO4 | -1.12 |
| ANO4 | -0.81 |

The listing continues:
| gene symbol | TNF reporter robust z-score |
| --- | --- |
| UCP3 | -1.02 |
| UCP3 | -0.53 |
| UCP3 | -0.48 |
| UCP3 | -0.83 |
| LMBRD2 | 0.04 |
| LMBRD2 | -0.8 |
| LMBRD2 | 0.21 |
| LMBRD2 | -1.06 |
| PDLIM2 | -0.26 |
| PDLIM2 | -0.14 |
| PDLIM2 | -0.17 |
| PDLIM2 | -0.53 |
| MARS2 | 0.77 |
| MARS2 | 1.06 |
| MARS2 | 0.27 |
| MARS2 | 0.97 |
| PLCB2 | -0.49 |
| PLCB2 | 0.22 |
| PLCB2 | -0.64 |
| PLCB2 | -0.69 |
| PPY | 0.45 |
| PPY | 0.4 |
| PPY | 1.3 |
| PPY | 2.21 |
| DERL1 | -0.52 |
| DERL1 | -0.61 |
| DERL1 | -0.16 |
| DERL1 | -0.7 |
